Experimental data as given in patent US6545131B1 (priority 1997, dated 2003).

Test: general procedure: peptide synthesis; copoly(styrene-divinylbenzene) containing 0.1-1.0 mM amine/gram polymer
Conditions: conjugation step, trifluoroacetate salt

| Substance | final HPLC purity [% purity] |
| --- | --- |
| Mu-His-Ser-Ser-Lys-Leu-Gln-doxorubicin (HSSKLQ; N-terminal morpholino/acetyl cap; doxorubicin conjugate; VARIANT (1) N-term Ac (Acetyl); listed as Homo sapiens) | >98 |
| PEPTIDE1{[Mu].H.S.S.K.L.Q.L.[Dox]}$$$$V2.0 | >98 |

Some peptides are written in HELM: one residue between dots, names in brackets for other building blocks, links after the first $.
